The assay addresses T1, GFP-tagged FERONIA (FER-GFP) (A. thaliana) (UniProt Q9SCZ4).
T1 sequence: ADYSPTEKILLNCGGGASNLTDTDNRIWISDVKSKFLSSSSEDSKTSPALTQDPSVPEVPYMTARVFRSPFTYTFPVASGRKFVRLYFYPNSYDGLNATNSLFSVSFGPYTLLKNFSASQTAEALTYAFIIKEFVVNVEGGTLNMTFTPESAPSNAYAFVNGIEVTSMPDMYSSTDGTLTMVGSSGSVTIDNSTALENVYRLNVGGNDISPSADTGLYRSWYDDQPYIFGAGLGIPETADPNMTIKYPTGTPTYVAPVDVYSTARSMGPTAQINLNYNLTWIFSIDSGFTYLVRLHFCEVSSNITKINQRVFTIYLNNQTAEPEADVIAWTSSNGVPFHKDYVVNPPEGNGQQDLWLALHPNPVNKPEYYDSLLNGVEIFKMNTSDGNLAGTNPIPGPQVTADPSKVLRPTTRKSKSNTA
As to the kind of experiment: co-IP.

No constants are given. Whether binding was seen depends on the method and setting. Binding seen in cells or lysates may run through a third protein. Binding can be weak; no strength is given. Tags and fused reporters may be left off the sequences shown.

For the substance “HA-tagged N-terminal part of LRX4 (LRR4-HA) (A. thaliana) (domain or fragment)”, the binding result is “binds”.

Values taken from paper doi:10.1101/231043.
